The target in test [1] is T1, Flag-tagged GNL3 SIM mutant (GNL3^SIMm) (human) (UniProt Q9BVP2).
T1 sequence: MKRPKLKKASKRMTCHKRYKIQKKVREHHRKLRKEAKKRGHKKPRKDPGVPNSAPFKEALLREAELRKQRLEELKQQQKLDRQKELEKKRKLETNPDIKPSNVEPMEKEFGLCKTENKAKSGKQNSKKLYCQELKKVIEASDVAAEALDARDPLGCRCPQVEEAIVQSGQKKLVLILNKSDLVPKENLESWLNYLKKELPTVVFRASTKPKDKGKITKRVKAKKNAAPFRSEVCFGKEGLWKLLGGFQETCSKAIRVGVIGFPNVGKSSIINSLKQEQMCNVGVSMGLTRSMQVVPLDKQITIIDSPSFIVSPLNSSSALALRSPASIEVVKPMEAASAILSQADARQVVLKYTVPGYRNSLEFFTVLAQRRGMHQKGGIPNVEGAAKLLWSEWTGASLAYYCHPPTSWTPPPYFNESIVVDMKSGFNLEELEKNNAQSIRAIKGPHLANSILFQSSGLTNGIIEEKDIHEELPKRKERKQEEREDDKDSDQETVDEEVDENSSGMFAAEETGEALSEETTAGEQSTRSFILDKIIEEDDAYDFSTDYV
Nature of the test: co-IP; anti-Flag (M2) agarose beads, 4 C, 4 h, on lysates of transfected U2OS cells; NP40 lysis buffer (50 mM Tris-HCl pH 8.0, 0.5% NP-40, 1 mM EDTA, 150 mM NaCl) with 20 mM NEM and 5 mM IAA; DMSO or 20 uM ETO; USP36 siRNA in one experiment; immunoblot. Background: In western blotting, separated proteins are transferred to a membrane and probed.

Chains of the proteins cited; added tags and fusions are not shown. Lines headed by an entry give the natural chain unless they say otherwise; changes in a name come on top.
UniProt P61956: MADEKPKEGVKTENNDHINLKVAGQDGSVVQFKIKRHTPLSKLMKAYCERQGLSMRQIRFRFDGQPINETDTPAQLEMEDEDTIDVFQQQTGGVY

For test [2], the target named is T2, Flag-tagged GNL3 (Flag-GNL3), wild type (human) (UniProt Q9BVP2).
T2 sequence: T1 sequence with A144V, A145L, A147V
The description is as above.

Where a chain is given by its changes, count along the chain named. These are yes or no findings as the source states them, for the method shown. Binding seen in cells or lysates may run through a third protein. For some assays here: Binding can be weak; no strength is given. Where a sequence is shown, tags or fusion partners need not be part of it.

The values that follow come from publication PMC13598120.

SUMO2, endogenous (from UniProt P61956): the results for the binding result in test [1] and in test [2] were “no binding” and “binds”, respectively.
